Experimental data from publication PMC3378586.
Results are given in words; binding and its absence hold for the method and conditions named. In cells and extracts the contact can be indirect. Some binding calls cover weakened binding; strength is not graded here. Where a sequence is shown, tags or fusion partners need not be part of it.

T1: Duf1-GFP (DUB-associated factor 1, Yol087c), tagged at the chromosomal locus (S. cerevisiae) (UniProt Q99247)
T1 sequence: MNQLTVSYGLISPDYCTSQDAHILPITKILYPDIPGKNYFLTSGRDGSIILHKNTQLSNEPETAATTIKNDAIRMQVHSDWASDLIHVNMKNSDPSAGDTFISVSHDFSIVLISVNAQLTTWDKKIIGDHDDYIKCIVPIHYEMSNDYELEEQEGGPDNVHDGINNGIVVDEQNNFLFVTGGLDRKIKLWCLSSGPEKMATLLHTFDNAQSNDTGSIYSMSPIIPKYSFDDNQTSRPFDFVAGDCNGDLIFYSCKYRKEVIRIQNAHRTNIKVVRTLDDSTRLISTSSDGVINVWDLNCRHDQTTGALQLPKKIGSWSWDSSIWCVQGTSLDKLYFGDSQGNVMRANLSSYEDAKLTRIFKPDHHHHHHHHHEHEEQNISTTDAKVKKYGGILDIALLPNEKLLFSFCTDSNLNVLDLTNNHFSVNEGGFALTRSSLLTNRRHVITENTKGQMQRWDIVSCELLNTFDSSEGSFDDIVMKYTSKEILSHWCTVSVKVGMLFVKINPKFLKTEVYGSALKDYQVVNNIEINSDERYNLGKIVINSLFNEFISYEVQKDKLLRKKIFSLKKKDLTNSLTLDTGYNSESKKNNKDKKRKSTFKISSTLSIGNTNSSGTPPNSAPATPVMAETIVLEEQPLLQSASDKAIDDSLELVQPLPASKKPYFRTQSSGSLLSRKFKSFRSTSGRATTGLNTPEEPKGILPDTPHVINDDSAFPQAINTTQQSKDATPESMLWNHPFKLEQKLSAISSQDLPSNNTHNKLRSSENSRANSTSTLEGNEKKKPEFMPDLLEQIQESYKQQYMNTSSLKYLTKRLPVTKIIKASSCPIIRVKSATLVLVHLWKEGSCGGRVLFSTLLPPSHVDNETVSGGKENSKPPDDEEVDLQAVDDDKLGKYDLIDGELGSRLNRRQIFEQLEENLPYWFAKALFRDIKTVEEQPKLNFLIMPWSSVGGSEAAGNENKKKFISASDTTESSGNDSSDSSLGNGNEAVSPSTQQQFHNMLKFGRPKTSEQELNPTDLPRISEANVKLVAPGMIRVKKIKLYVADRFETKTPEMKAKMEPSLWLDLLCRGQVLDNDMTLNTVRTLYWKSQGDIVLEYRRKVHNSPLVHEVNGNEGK


The binders below were run against T1, Duf1-GFP (DUB-associated factor 1, Yol087c), tagged at the chromosomal locus (S. cerevisiae) (assay: co-IP; immunoprecipitation of Duf1-GFP in native conditions with anti-GFP antibody from yeast lysates; blot with anti-HA; chromosome-encoded Ubp9-HA or Ubp13-HA, and Δubp9 Δubp13 cells with plasmid-encoded Ubp9 or Ubp13; lysis buffer 50 mM Hepes-KOH pH 7.5, 150 mM NaCl, 0.1% NP40, 10% glycerol, 1 mM EDTA; 1 h at 4°C).

binding | Binder
binds | Ubp13-HA, tagged at the chromosomal locus (enzyme, UniProt P38187 1-747) MIRRWLTISKSGKKKKAVNDTITEEVEKVDFKPVNHDINDELCYSESSDNPSSSLFVSNLDTKETFLNEDNNLQISSGLDYSSETCNQGSNYSQDGIFYISNAKAINAYGGIITQGPEAPILAMKVSDSMPYGDGSNKVFGYENFGNTCYCNSVLQCLYNLSSLRENILQFPKKSRESDQPRKKEMRGKKPRIFTEASFEKSIAGTNGHLPNPKPQSVDDGKPTPVNSVNSNTAGPSEKKSKFFKSFSAKHVQDNNKKEGSPAILTTGKPSSRPQDAPPLIVETPNEPGAPSRLSFENVTDRPPDVPRKIIVGRVLNYENPSRGSSNSNNLDLKGESNSSLSTPLDKKDTRRSSSSSQISPEHRKKSALIRGPVLNIDHSLNGSDKATLYSSLRDIFECITENTYLTGVVSPSSFVDVLKRENVLFNTTMHQDAHEFFNFLLNELSEYIERENKKIAASDINSDSEPSKSKNFISDLFQGTLTNQIKCLTCDNITSRDEPFLDFPIEVQGDEETDIQEILKSYHQREMLNGSNKFYCDECCGLQEAERLVGLKQLPDTLTLHLKRFKYSEKQNCNIKLFNNIHYPLTLNVCSSINSKVCQKYELAGIVVHMGGGPQHGHYVSLCKHEKFGWLLFDDETVEAVKEETVLEFTGESPNMATAYVLFYKAMYSNAVEKNDRENMAKEQDDNIDNLIKYDDWLRTCNSGQKKKEELPIADDLDTAIDDSFVSNTPIKSSKKKSRMFSFRKS
binds | plasmid-encoded Ubp13-3HA (pFL38-UBP13-3HA) (enzyme, UniProt P38187 1-747) MIRRWLTISKSGKKKKAVNDTITEEVEKVDFKPVNHDINDELCYSESSDNPSSSLFVSNLDTKETFLNEDNNLQISSGLDYSSETCNQGSNYSQDGIFYISNAKAINAYGGIITQGPEAPILAMKVSDSMPYGDGSNKVFGYENFGNTCYCNSVLQCLYNLSSLRENILQFPKKSRESDQPRKKEMRGKKPRIFTEASFEKSIAGTNGHLPNPKPQSVDDGKPTPVNSVNSNTAGPSEKKSKFFKSFSAKHVQDNNKKEGSPAILTTGKPSSRPQDAPPLIVETPNEPGAPSRLSFENVTDRPPDVPRKIIVGRVLNYENPSRGSSNSNNLDLKGESNSSLSTPLDKKDTRRSSSSSQISPEHRKKSALIRGPVLNIDHSLNGSDKATLYSSLRDIFECITENTYLTGVVSPSSFVDVLKRENVLFNTTMHQDAHEFFNFLLNELSEYIERENKKIAASDINSDSEPSKSKNFISDLFQGTLTNQIKCLTCDNITSRDEPFLDFPIEVQGDEETDIQEILKSYHQREMLNGSNKFYCDECCGLQEAERLVGLKQLPDTLTLHLKRFKYSEKQNCNIKLFNNIHYPLTLNVCSSINSKVCQKYELAGIVVHMGGGPQHGHYVSLCKHEKFGWLLFDDETVEAVKEETVLEFTGESPNMATAYVLFYKAMYSNAVEKNDRENMAKEQDDNIDNLIKYDDWLRTCNSGQKKKEELPIADDLDTAIDDSFVSNTPIKSSKKKSRMFSFRKS
binds | Ubp9-HA, tagged at the chromosomal locus (enzyme, UniProt P39967 1-754) MIKRWLSVNRKKSHPEKNTQGNDEINRKATSLKKTKGSGDPSIAKSPSAKSSTSSIPSNLASHERRSKFSSQTDNLAGNKHYHEHYHNMASTSDEREYDSSTTYEDRAFDTESSILFTTITDLMPYGDGSNKVFGYENFGNTCYCNSVLQCLYNIPEFRCNVLRYPERVAAVNRIRKSDLKGSKIRVFTNESFETSTNSGNSNTGYQSNDNEDAHNHHHLQQSDQDNSSSSTQEKQNNFERKRNSFMGFGKDKSNYKDSAKKDDNNEMERPQPVHTVVMASDTLTEKLHEGCKKIIVGRPLLKQSDSLSKASTTDCQANSHCQCDSQGSRITSVDDDVLVNPESCNDAVNNSNNNKENTFPTSEQRKKAALIRGPVLNVDHLLYPTEEATLYNGLKDIFESITENLSLTGIVSPTEFVKILKKENVLFNTMMQQDAHEFLNFLLNDFSEYIQRNNPRMRFGPQKTDNSNDNFITDLFKGTLTNRIKCLTCDNITSRDEPFLDFPIEVQGDEETDIQKMLKSYHQREMLNGVNKFYCNKCYGLQEAERMVGLKQLPHILSLHLKRFKYSEEQKSNIKLFNKILYPLTLDVSSTFNTSVYKKYELSGVVIHMGSGPQHGHYVCICRNEKFGWLLYDDETVESIKEETVLQFTGHPGDQTTAYVLFYKETQADKTENQNENIDTSSQDQMQTDNNIEQLIKCDDWLRDRKLRAAANIERKKTLGNIPEVKTAETKTPLNDKKRNKQKRKSRILSFIK
binds | plasmid-encoded Ubp9-3HA (pFL38-UBP9-3HA) (enzyme, UniProt P39967 1-754) MIKRWLSVNRKKSHPEKNTQGNDEINRKATSLKKTKGSGDPSIAKSPSAKSSTSSIPSNLASHERRSKFSSQTDNLAGNKHYHEHYHNMASTSDEREYDSSTTYEDRAFDTESSILFTTITDLMPYGDGSNKVFGYENFGNTCYCNSVLQCLYNIPEFRCNVLRYPERVAAVNRIRKSDLKGSKIRVFTNESFETSTNSGNSNTGYQSNDNEDAHNHHHLQQSDQDNSSSSTQEKQNNFERKRNSFMGFGKDKSNYKDSAKKDDNNEMERPQPVHTVVMASDTLTEKLHEGCKKIIVGRPLLKQSDSLSKASTTDCQANSHCQCDSQGSRITSVDDDVLVNPESCNDAVNNSNNNKENTFPTSEQRKKAALIRGPVLNVDHLLYPTEEATLYNGLKDIFESITENLSLTGIVSPTEFVKILKKENVLFNTMMQQDAHEFLNFLLNDFSEYIQRNNPRMRFGPQKTDNSNDNFITDLFKGTLTNRIKCLTCDNITSRDEPFLDFPIEVQGDEETDIQKMLKSYHQREMLNGVNKFYCNKCYGLQEAERMVGLKQLPHILSLHLKRFKYSEEQKSNIKLFNKILYPLTLDVSSTFNTSVYKKYELSGVVIHMGSGPQHGHYVCICRNEKFGWLLYDDETVESIKEETVLQFTGHPGDQTTAYVLFYKETQADKTENQNENIDTSSQDQMQTDNNIEQLIKCDDWLRDRKLRAAANIERKKTLGNIPEVKTAETKTPLNDKKRNKQKRKSRILSFIK
